{"source": "patent US10864251B2", "about": "(Wisconsin Alumni Research Foundation, priority 2006, dated 2020)", "test": "peptide made by a vendor", "settings": "whole synthesis", "note": "Where no end group is shown, it is not given here."}
{"sequence": "SNTETAFTSVLPAGEKPEEGEPVLHVEAEPGFTARDKEKEVTTRPRETV", "values": [{"measurement": "final purity (method not given)", "result": 75, "unit": "%"}]}
